Measurements reported in PubChem BioAssay AID652243 (Drosophila RNAi Screening Center, 2013)
Purpose: 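Fly genes required for human androgen receptor driven transcription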 (primary screen). System: Drosophila S2R+ cells. Reagent: long dsRNA against Drosophila genes. Timing: 72 h (48 h, then 24 h hormone). Challenge: synthetic androgen R1881 at 10 nM for 24 h. Measurement: 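Per-well raw luminescence of the androgen-driven firefly reporter and of the Renilla control, two replicates each, without normalisation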. Reading the numbers: firefly reporter light: higher = more light from androgen-responsive reporter; Renilla control light: higher = more constitutive control signal (cell number, transfection). Hit rule: 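Across duplicate plates, a knock-down whose log firefly/Renilla ratio shifted a set fold down or up from the GFP/LacZ control mean was a hit; the downward cut appears as both 1.5 and 3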. Calls: active = hit: reporter lowered or raised; inactive = no hit.
The deposit covers about 24,000 reagents; below is an unselected part of those that have a named target and a result. Of all reagents, 246 (1%) got an active call. 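Plates not normalised; calls are printed but the firefly/Renilla ratio behind them is not deposited; fold cut for lowering reported inconsistently.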 Raw values vary from plate to plate and are shown uncorrected. The record does not give: the amount of reagent.

no.	Target gene	amplicon	firefly reporter light, replicate 1	firefly reporter light, replicate 2	Renilla control light, replicate 1	Renilla control light, replicate 2	activity call
1	pic	DRSC16639	55906	82397	4.06e5	5.02e5	inactive
2	CR43361	DRSC17206	3.80e5	3.31e5	3.46e6	3.07e6	inactive
3	CR43361	DRSC23926	7.48e5	6.18e5	9.23e5	8.71e5	inactive
4	Vha13	DRSC16895	2.22e5	2.33e5	2.39e6	2.89e6	inactive
5	BBS5	DRSC12168	1.04e5	1.50e5	1.41e6	1.02e6	inactive
6	BBS5	DRSC27540	1.86e5	2.07e5	5.51e5	7.20e5	inactive
7	CG33941	DRSC37786	7.95e5	7.05e5	1.76e6	1.26e6	inactive
8	CG33941	DRSC39124	9.50e5	9.66e5	1.80e6	2.15e6	inactive
9	CG33941	DRSC39125	8.80e5	7.99e5	1.68e6	1.57e6	inactive
10	Adgf-A	DRSC10566	33567	51483	4.15e5	3.86e5	inactive
11	Adgf-A	DRSC24552	6.65e5	5.35e5	8.38e5	7.81e5	inactive
12	CG42816	DRSC11230	1.97e5	1.72e5	1.95e6	2.02e6	inactive
13	Atg12	DRSC09803	3.37e5	2.71e5	3.57e6	2.89e6	inactive
14	CG11584	DRSC19408	3.26e5	3.41e5	2.88e6	3.38e6	inactive
15	CG11584	DRSC25623	5.16e5	5.38e5	7.75e5	6.93e5	inactive
16	CNMaR	DRSC08992	45097	52795	1.12e5	1.01e5	inactive
17	CNMaR	DRSC10224	1.17e5	98269	2.05e6	1.24e6	inactive
18	SdhCL	DRSC16078	1.51e5	1.65e5	2.99e6	2.95e6	inactive
19	snRNP-U1-70K	DRSC03612	4.65e5	3.83e5	3.79e6	3.66e6	inactive
20	snRNP-U1-70K	DRSC22071	8.65e5	6.97e5	2.04e6	1.66e6	inactive
21	snRNP-U1-70K	DRSC28803	5.29e5	4.74e5	8.84e5	8.27e5	inactive
22	RhoGAP16F	DRSC20025	74666	80797	5.93e5	5.73e5	inactive

A stretch from the list above, for reference:
no.	Target gene	amplicon	firefly reporter light, replicate 1	firefly reporter light, replicate 2	Renilla control light, replicate 1	Renilla control light, replicate 2	activity call
12	CG42816	DRSC11230	1.97e5	1.72e5	1.95e6	2.02e6	inactive
13	Atg12	DRSC09803	3.37e5	2.71e5	3.57e6	2.89e6	inactive
14	CG11584	DRSC19408	3.26e5	3.41e5	2.88e6	3.38e6	inactive
15	CG11584	DRSC25623	5.16e5	5.38e5	7.75e5	6.93e5	inactive
16	CNMaR	DRSC08992	45097	52795	1.12e5	1.01e5	inactive

Continued:
no.	Target gene	amplicon	firefly reporter light, replicate 1	firefly reporter light, replicate 2	Renilla control light, replicate 1	Renilla control light, replicate 2	activity call
23	hbn	DRSC04238	2.09e5	2.51e5	2.70e6	2.70e6	inactive
24	hbn	DRSC04239	3.87e5	5.12e5	2.01e6	1.68e6	inactive
25	hbn	DRSC22436	2.05e5	5.45e5	9.98e5	1.60e6	inactive
26	ttk	DRSC14078	5.74e5	5.75e5	5.93e5	4.95e5	inactive
27	ttk	DRSC17091	1.51e5	1.59e5	2.05e6	1.87e6	inactive
28	ttk	DRSC27078	3.47e5	4.41e5	8.32e5	7.21e5	inactive
29	CG17111	DRSC15174	1.76e5	1.77e5	2.62e6	2.40e6	inactive
30	CG17111	DRSC26175	2.15e5	2.60e5	4.08e5	4.89e5	inactive
31	CG4455	DRSC01983	6.29e5	7.69e5	1.63e6	1.78e6	inactive
32	CG4455	DRSC21684	7.58e5	7.42e5	1.85e6	2.45e6	inactive
33	Diap1	DRSC11404	103				inactive
34	BORCS5	DRSC19427	1.08e5	1.15e5	1.01e6	9.30e5	inactive
35	BORCS5	DRSC26187	4.53e5	4.13e5	6.01e5	3.28e5	inactive
36	elg1	DRSC10229	62946	51670	5.59e5	4.32e5	inactive
37	elg1	DRSC27844	1.14e6	4.19e5	3.37e6	1.38e6	inactive
38	CG18853	DRSC06795	4.27e5	5.48e5	2.32e6	1.88e6	inactive
39	CG3437	DRSC10366	1.25e5	1.09e5	1.79e6	1.97e6	inactive
40	CG3437	DRSC24768	6.30e5	7.82e5	1.13e6	1.25e6	inactive
